Reference: paper doi:10.1101/642959
No constants are given. Whether binding was seen depends on the method and setting. In cells and extracts the contact can be indirect. Some entries that bind do so weakly or less than the wild type. Each block holds one binder with its values, some of them ahead of it.

Chains of the proteins cited; added tags and fusions are not shown.
UniProt Q9UQE7: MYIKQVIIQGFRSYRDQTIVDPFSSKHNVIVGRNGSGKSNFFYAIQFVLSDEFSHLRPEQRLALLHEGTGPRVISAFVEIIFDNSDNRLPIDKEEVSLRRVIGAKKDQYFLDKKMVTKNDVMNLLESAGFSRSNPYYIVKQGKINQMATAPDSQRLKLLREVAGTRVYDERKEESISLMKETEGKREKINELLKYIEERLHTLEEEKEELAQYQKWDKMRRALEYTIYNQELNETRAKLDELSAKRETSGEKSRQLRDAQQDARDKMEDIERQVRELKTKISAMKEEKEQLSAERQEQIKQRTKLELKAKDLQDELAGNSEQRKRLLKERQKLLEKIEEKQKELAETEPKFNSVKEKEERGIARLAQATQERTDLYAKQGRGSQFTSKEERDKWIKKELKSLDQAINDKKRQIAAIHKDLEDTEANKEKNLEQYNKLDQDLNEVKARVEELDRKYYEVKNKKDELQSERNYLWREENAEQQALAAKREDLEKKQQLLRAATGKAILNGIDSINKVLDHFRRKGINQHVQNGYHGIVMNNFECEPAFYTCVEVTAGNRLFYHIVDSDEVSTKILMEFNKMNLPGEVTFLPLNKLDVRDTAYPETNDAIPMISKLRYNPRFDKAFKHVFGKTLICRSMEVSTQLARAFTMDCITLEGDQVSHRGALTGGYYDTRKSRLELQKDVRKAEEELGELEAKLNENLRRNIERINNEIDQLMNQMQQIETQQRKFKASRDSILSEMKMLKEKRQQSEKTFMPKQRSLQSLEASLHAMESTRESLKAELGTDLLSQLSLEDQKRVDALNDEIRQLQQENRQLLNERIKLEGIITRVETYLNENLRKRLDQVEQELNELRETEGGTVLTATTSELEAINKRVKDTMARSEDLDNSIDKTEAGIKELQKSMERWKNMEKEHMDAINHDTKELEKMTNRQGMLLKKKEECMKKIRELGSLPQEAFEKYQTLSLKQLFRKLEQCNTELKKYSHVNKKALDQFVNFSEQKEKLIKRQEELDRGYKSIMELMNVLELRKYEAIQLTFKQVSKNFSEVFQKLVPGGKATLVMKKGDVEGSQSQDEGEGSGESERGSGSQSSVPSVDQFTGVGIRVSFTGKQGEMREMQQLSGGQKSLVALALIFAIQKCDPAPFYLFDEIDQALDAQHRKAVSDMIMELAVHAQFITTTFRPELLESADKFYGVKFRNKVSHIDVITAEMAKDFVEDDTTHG

Biological target: SMC3 (human (endogenous in HCT116)) (UniProt Q9UQE7)
Assay: co-IP

- binding: binds
B1: SA2-AID-mClover (protein, UniProt Q8N3U4 1-1231)
chain: MIAAPEIPTDFNLLQESETHFSSDTDFEDIEGKNQKQGKGKTCKKGKKGPAEKGKGGNGGGKPPSGPNRMNGHHQQNGVENMMLFEVVKMGKSAMQSVVDDWIESYKHDRDIALLDLINFFIQCSGCKGVVTAEMFRHMQNSEIIRKMTEEFDEDSGDYPLTMAGPQWKKFKSSFCEFIGVLVRQCQYSIIYDEYMMDTVISLLTGLSDSQVRAFRHTSTLAAMKLMTALVNVALNLSINMDNTQRQYEAERNKMIGKRANERLELLLQKRKELQENQDEIENMMNAIFKGVFVHRYRDAIAEIRAICIEEIGIWMKMYSDAFLNDSYLKYVGWTMHDKQGEVRLKCLTALQGLYYNKELNSKLELFTSRFKDRIVSMTLDKEYDVAVQAIKLLTLVLQSSEEVLTAEDCENVYHLVYSAHRPVAVAAGEFLYKKLFSRRDPEEDGMMKRRGRQGPNANLVKTLVFFFLESELHEHAAYLVDSMWDCATELLKDWECMNSLLLEEPLSGEEALTDRQESALIEIMLCTIRQAAECHPPVGRGTGKRVLTAKEKKTQLDDRTKITELFAVALPQLLAKYSVDAEKVTNLLQLPQYFDLEIYTTGRLEKHLDALLRQIRNIVEKHTDTDVLEACSKTYHALCNEEFTIFNRVDISRSQLIDELADKFNRLLEDFLQEGEEPDEDDAYQVLSTLKRITAFHNAHDLSKWDLFACNYKLLKTGIENGDMPEQIVIHALQCTHYVILWQLAKITESSSTKEDLLRLKKQMRVFCQICQHYLTNVNTTVKEQAFTILCDILMIFSHQIMSGGRDMLEPLVYTPDSSLQSELLSFILDHVFIEQDDDNNSADGQQEDEASKIEALHKRRNLLAAFCKLIVYTVVEMNTAADIFKQYMKYYNDYGDIIKETMSKTRQIDKIQCAKTLILSLQQLFNEMIQENGYNFDRSSSTFSGIKELARRFALTFGLDQLKTREAIAMLHKDGIEFAFKEPNPQGESHPPLNLAFLDILSEFSSKLLRQDKRTVYVYLEKFMTFQMSLRREDVWLPLMSYRNSLLAGGDDDTMSVISGISSRGSTVRSKKSKPSTGKRKVVEGMQLSLTEESSSSDSMWLSREQTLHTPVMMQTPQLTSTIMREPKRLRPEDSFMSVYPMQTEHHQTPLDYNRRGTSLMEDDEEPIVEDVMMSSEGRIEDLNEGMDFDTMDIDLPPSKNRRERTELKPDFFDPASIMDESVLGVSMF

- binding: binds
B2: SA1-mAID-mClover (protein, UniProt Q8WVM7 1-1258)
chain: MITSELPVLQDSTNETTAHSDAGSELEETEVKGKRKRGRPGRPPSTNKKPRKSPGEKSRIEAGIRGAGRGRANGHPQQNGEGEPVTLFEVVKLGKSAMQSVVDDWIESYKQDRDIALLDLINFFIQCSGCRGTVRIEMFRNMQNAEIIRKMTEEFDEDSGDYPLTMPGPQWKKFRSNFCEFIGVLIRQCQYSIIYDEYMMDTVISLLTGLSDSQVRAFRHTSTLAAMKLMTALVNVALNLSIHQDNTQRQYEAERNKMIGKRANERLELLLQKRKELQENQDEIENMMNSIFKGIFVHRYRDAIAEIRAICIEEIGVWMKMYSDAFLNDSYLKYVGWTLHDRQGEVRLKCLKALQSLYTNRELFPKLELFTNRFKDRIVSMTLDKEYDVAVEAIRLVTLILHGSEEALSNEDCENVYHLVYSAHRPVAVAAGEFLHKKLFSRHDPQAEEALAKRRGRNSPNGNLIRMLVLFFLESELHEHAAYLVDSLWESSQELLKDWECMTELLLEEPVQGEEAMSDRQESALIELMVCTIRQAAEAHPPVGRGTGKRVLTAKERKTQIDDRNKLTEHFIITLPMLLSKYSADAEKVANLLQIPQYFDLEIYSTGRMEKHLDALLKQIKFVVEKHVESDVLEACSKTYSILCSEEYTIQNRVDIARSQLIDEFVDRFNHSVEDLLQEGEEADDDDIYNVLSTLKRLTSFHNAHDLTKWDLFGNCYRLLKTGIEHGAMPEQIVVQALQCSHYSILWQLVKITDGSPSKEDLLVLRKTVKSFLAVCQQCLSNVNTPVKEQAFMLLCDLLMIFSHQLMTGGREGLQPLVFNPDTGLQSELLSFVMDHVFIDQDEENQSMEGDEEDEANKIEALHKRRNLLAAFSKLIIYDIVDMHAAADIFKHYMKYYNDYGDIIKETLSKTRQIDKIQCAKTLILSLQQLFNELVQEQGPNLDRTSAHVSGIKELARRFALTFGLDQIKTREAVATLHKDGIEFAFKYQNQKGQEYPPPNLAFLEVLSEFSSKLLRQDKKTVHSYLEKFLTEQMMERREDVWLPLISYRNSLVTGGEDDRMSVNSGSSSSKTSSVRNKKGRPPLHKKRVEDESLDNTWLNRTDTMIQTPGPLPAPQLTSTVLRENSRPMGDQIQEPESEHGSEPDFLHNPQMQISWLGQPKLEDLNRKDRTGMNYMKVRTGVRHAVRGLMEEDAEPIFEDVMMSSRSQLEDMNEEFEDTMVIDLPPSRNRRERAELRPDFFDSAAIIEDDSGFGMPMF
